PubChem BioAssay AID493246 | Drosophila RNAi Screening Center – 2011
In all, the deposit lists about 21,000 reagents; this is a random part of those that have a named target and a result. In the full data, 429 (2%) are marked active. 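Values are raw and not normalised between plates; calls rest on per-plate z-scores that were not deposited.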 A plus sign joins genes that one reagent is predicted to hit. Not stated in the record: the amount of reagent, the time to read-out.

Test: 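Identify essential fly genes by loss of cell viability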 (primary screen)
Cells: Drosophila Kc and S2R+ cells
Reagent: long dsRNA against Drosophila genes
Read-out: 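Cell number per well after knock-down, printed as raw plate values; calls were based on per-plate z-scores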
Direction: Kc cell number and S2R+ cell number: higher = more cells remaining
Active means: 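Counted as a hit if cell number falls by a z-score of at least 3 within its plate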

{"gene": "c12.1", "amplicon": "DRSC18750", "Kc cell number, rep 1": 1.45e6, "Kc cell number, rep 2": 1.62e6, "S2R+ cell number, rep 1": 9.30e5, "S2R+ cell number, rep 2": 1.09e6, "Call": "inactive"}
{"gene": "hoe1", "amplicon": "DRSC00265", "Kc cell number, rep 1": 1.24e6, "Kc cell number, rep 2": 1.42e6, "S2R+ cell number, rep 1": 4.71e5, "S2R+ cell number, rep 2": 6.08e5, "Call": "inactive"}
{"gene": "hoe1", "amplicon": "DRSC00333", "Kc cell number, rep 1": 1.55e6, "Kc cell number, rep 2": 1.45e6, "S2R+ cell number, rep 1": 1.18e6, "S2R+ cell number, rep 2": 1.33e6, "Call": "inactive"}
{"gene": "hoe1", "amplicon": "DRSC00353", "Kc cell number, rep 1": 1.47e6, "Kc cell number, rep 2": 1.39e6, "S2R+ cell number, rep 1": 1.10e6, "S2R+ cell number, rep 2": 1.22e6, "Call": "inactive"}
{"gene": "CG5758", "amplicon": "DRSC02889", "Kc cell number, rep 1": 1.49e6, "Kc cell number, rep 2": 1.57e6, "S2R+ cell number, rep 1": 8.98e5, "S2R+ cell number, rep 2": 1.02e6, "Call": "inactive"}
{"gene": "CG5758", "amplicon": "DRSC02890", "Kc cell number, rep 1": 1.63e6, "Kc cell number, rep 2": 1.68e6, "S2R+ cell number, rep 1": 1.27e6, "S2R+ cell number, rep 2": 1.44e6, "Call": "inactive"}
{"gene": "CG7878", "amplicon": "DRSC16330", "Kc cell number, rep 1": 1.74e6, "Kc cell number, rep 2": 2.01e6, "S2R+ cell number, rep 1": 1.17e6, "S2R+ cell number, rep 2": 1.31e6, "Call": "inactive"}
{"gene": "ppk5", "amplicon": "DRSC11492", "Kc cell number, rep 1": 1.36e6, "Kc cell number, rep 2": 1.51e6, "S2R+ cell number, rep 1": 1.15e6, "S2R+ cell number, rep 2": 1.32e6, "Call": "inactive"}
{"gene": "mRpS29", "amplicon": "DRSC04398", "Kc cell number, rep 1": 1.26e6, "Kc cell number, rep 2": 1.34e6, "S2R+ cell number, rep 1": 9.69e5, "S2R+ cell number, rep 2": 1.07e6, "Call": "inactive"}

Continued (2 carried over from the part before).
{"gene": "ppk5", "amplicon": "DRSC11492", "Kc cell number, rep 1": 1.36e6, "Kc cell number, rep 2": 1.51e6, "S2R+ cell number, rep 1": 1.15e6, "S2R+ cell number, rep 2": 1.32e6, "Call": "inactive"}
{"gene": "mRpS29", "amplicon": "DRSC04398", "Kc cell number, rep 1": 1.26e6, "Kc cell number, rep 2": 1.34e6, "S2R+ cell number, rep 1": 9.69e5, "S2R+ cell number, rep 2": 1.07e6, "Call": "inactive"}
{"gene": "CG5292", "amplicon": "DRSC15763", "Kc cell number, rep 1": 1.13e6, "Kc cell number, rep 2": 1.19e6, "S2R+ cell number, rep 1": 1.17e6, "S2R+ cell number, rep 2": 1.32e6, "Call": "inactive"}
{"gene": "CG30046", "amplicon": "DRSC06691", "Kc cell number, rep 1": 1.51e6, "Kc cell number, rep 2": 1.46e6, "S2R+ cell number, rep 1": 1.17e6, "S2R+ cell number, rep 2": 1.26e6, "Call": "inactive"}
{"gene": "CG18586", "amplicon": "DRSC10325", "Kc cell number, rep 1": 1.43e6, "Kc cell number, rep 2": 1.61e6, "S2R+ cell number, rep 1": 1.28e6, "S2R+ cell number, rep 2": 1.29e6, "Call": "inactive"}
{"gene": "azot", "amplicon": "DRSC06051", "Kc cell number, rep 1": 1.44e6, "Kc cell number, rep 2": 1.55e6, "S2R+ cell number, rep 1": 1.27e6, "S2R+ cell number, rep 2": 1.36e6, "Call": "inactive"}
{"gene": "CG3815", "amplicon": "DRSC18324", "Kc cell number, rep 1": 6.08e5, "S2R+ cell number, rep 1": 7.88e5, "Call": "inactive"}
{"gene": "CG8483", "amplicon": "DRSC16430", "Kc cell number, rep 1": 1.58e6, "Kc cell number, rep 2": 1.62e6, "S2R+ cell number, rep 1": 1.40e6, "S2R+ cell number, rep 2": 1.50e6, "Call": "inactive"}
{"gene": "snoRNA:U31:54Ec + snoRNA:snR38:54Eb + snoRNA:U27:54Eb + 8 more", "amplicon": "DRSC06458", "Kc cell number, rep 1": 1.64e6, "Kc cell number, rep 2": 1.70e6, "S2R+ cell number, rep 1": 1.20e6, "S2R+ cell number, rep 2": 1.36e6, "Call": "inactive"}
{"gene": "CG31093", "amplicon": "DRSC15689", "Kc cell number, rep 1": 1.47e6, "Kc cell number, rep 2": 1.42e6, "S2R+ cell number, rep 1": 9.24e5, "S2R+ cell number, rep 2": 1.00e6, "Call": "inactive"}
{"gene": "wge", "amplicon": "DRSC15246", "Kc cell number, rep 1": 1.51e6, "Kc cell number, rep 2": 1.64e6, "S2R+ cell number, rep 1": 1.21e6, "S2R+ cell number, rep 2": 1.27e6, "Call": "inactive"}
{"gene": "wge", "amplicon": "DRSC15672", "Kc cell number, rep 1": 1.57e6, "Kc cell number, rep 2": 1.52e6, "S2R+ cell number, rep 1": 1.01e6, "S2R+ cell number, rep 2": 1.12e6, "Call": "inactive"}
{"gene": "CG6283", "amplicon": "DRSC16009", "Kc cell number, rep 1": 1.42e6, "Kc cell number, rep 2": 1.45e6, "S2R+ cell number, rep 1": 9.55e5, "S2R+ cell number, rep 2": 1.10e6, "Call": "inactive"}
{"gene": "Hs6st", "amplicon": "DRSC14348", "Kc cell number, rep 1": 1.44e6, "Kc cell number, rep 2": 1.48e6, "S2R+ cell number, rep 1": 1.06e6, "S2R+ cell number, rep 2": 1.10e6, "Call": "inactive"}
{"gene": "Hs6st", "amplicon": "DRSC15182", "Kc cell number, rep 1": 1.20e6, "Kc cell number, rep 2": 1.22e6, "S2R+ cell number, rep 1": 9.73e5, "S2R+ cell number, rep 2": 1.22e6, "Call": "inactive"}
{"gene": "Hs6st", "amplicon": "DRSC15581", "Kc cell number, rep 1": 1.36e6, "Kc cell number, rep 2": 1.59e6, "S2R+ cell number, rep 1": 1.01e6, "S2R+ cell number, rep 2": 1.17e6, "Call": "inactive"}
